In patent publication US20090155271A1:
No constants are given. Whether binding was seen depends on the method and setting. Some results given as binding are weak or reduced against the parent protein; the word gives no strength.

How the values were obtained:
Settings in all cases: remark: other sources report otherwise
[1] = molecular target: human IL-17RA on transfected cells (human), Q96F46; assay: saturation binding on BHK cells, experiment 2
[2] = molecular target: human IL-17RA on transfected cells (human), Q96F46; assay: saturation binding on BHK cells, experiment 1
[3] = molecular target: human IL-17RA on transfected cells (human), Q96F46; assay: saturation binding on BHK cells, experiment 3
[4] = molecular target: human IL-17RA on transfected cells (human), Q96F46; assay: FACS, MFI over a range of cytokine concentrations, transfected BHK cells
[5] = molecular target: human IL-17RA on transfected cells (human), Q96F46; assay: FACS, biotinylated cytokine on transfected BHK cells

- binding [1]: binds
- binding [2]: binds
- binding [3]: binds
- binding [4]: binds
- binding [5]: binds
B1: human IL-17F, Q96PD4 31-163 (ligand)
chain: RKIPKVGHTFFQKPESCPPVPGGSMKLDIGIINENQRVSMSRNIESRSTSPWNYTVTWDPNRYPSEVVQAQCRNLGCINAQGKEDISMNSVPIQQETLVVRRKHQGCSVSFQLEKVLVTVGCTCVTPVIHHVQ
